PubChem BioAssay AID1259254, NCATS, 2017

Aim: 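Finding genes that stop cells copying their DNA twice in one cycle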 (primary screen)
Cell system: human HCT116 colorectal cancer cells
Reagent: single siRNA against human genes
Time to read-out: 3 days
Read-out: 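Imaged Hoechst DNA stain sorts each cell into a cycle phase by DNA amount; per plate, G2 fraction set to 0% for non-targeting and 100% for GMNN siRNA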
Reading the numbers: G2 robust z-score: higher = more G2 cells, more excess DNA replication
Hit rule: 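An siRNA counts as active if its G2 robust z-score lies at least 5 MADs above the screen median; here such calls match roughly 38% of GMNN control or more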
Here is a random part of about 59,000 reagents. Over the whole deposit, about 1,550 (2.6%) were called active. 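G2 share is only a proxy for re-replication; each gene was hit by three separate siRNAs, and active genes were retested.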 A number with no mark means an inactive call. The numbers tell different reagents against one gene apart. Further read-outs or replicates are left out here. Reagent sequences are not shown. The record does not give: the amount of reagent.

The opening 2 entries, to show the layout:
| gene | reagent | G2 robust z-score |
| --- | --- | --- |
| INHA | 1 | -1.08 |
| INHA | 2 | -1.71 |

Results, from the first entry:
| gene | reagent | G2 robust z-score |
| --- | --- | --- |
| INHA | 1 | -1.08 |
| INHA | 2 | -1.71 |
| INHA | 3 | -0.64 |
| OR51V1 | 1 | -0.123 |
| OR51V1 | 2 | 4.71 |
| OR51V1 | 3 | 1.06 |
| LOC100533706 | 1 | -0.764 |
| LOC100533706 | 2 | 0.0335 |
| LOC100533706 | 3 | -0.656 |
| CALB1 | 1 | -0.412 |
| CALB1 | 2 | -0.225 |
| CALB1 | 3 | -0.395 |
| HSFX2 | 1 | -0.259 |
| HSFX2 | 2 | 3.8 |
| HSFX2 | 3 | -0.323 |
| BOLA2 | 1 | 0.89 |
| BOLA2 | 2 | 1.32 |
| BOLA2 | 3 | -0.295 |
| SUSD6 | 1 | 0.00932 |
| SUSD6 | 2 | 0.481 |
| SUSD6 | 3 | -0.00263 |
| REP15 | 1 | 0.0377 |
| REP15 | 2 | 2.09 |
| REP15 | 3 | -0.643 |
| TSPAN10 | 1 | -1.09 |
| TSPAN10 | 2 | -0.447 |
| TSPAN10 | 3 | 2.49 |
| AXIN1 | 1 | -0.493 |
| AXIN1 | 2 | -0.419 |
| AXIN1 | 3 | 1.27 |
